# Assay results: patent publication US7884097B2, “Methods and compositions comprising diamines as new anti-tubercular therapeutics” (Sequella, Inc., priority 2003, dated 2011)
# Some entries share one result that the patent states for a list of compounds.
# Test system: M. tuberculosis in TB-infected mouse macrophage RAW 264.7 cells
# Assay: Efficacy in TB-infected macrophages, bioluminescence reporter assay
# Format: cell-based
# Settings: intracellular, RAW 264.7, 7 days treatment, 0.25-4×MIC, day 7
row,Structure (SMILES),inhibition of bacterial growth
1,"CCOc1ccccc1CN1CCCN(Cc2ccccc2OCC)CC1 [SQ780, N,N′-Bis(2-Ethoxybenzyl)homopiperazine]",at least 90%
2,COc1ccccc1CN1CCCN(Cc2ccccc2OC)CC1 [SQ782],at least 90%
3,"c1ccc(COc2ccc(CN3CCN(Cc4ccccc4)CC3)cc2)cc1 [SQ786, N -benzyl-N′-(4-benzyloxy)benzylpiperazine]",at least 90%
